In test [1] the target is Cullin1 (human (endogenous in L02 and THLE-2)) (UniProt Q13616). The test can be described thus: co-IP; lysates of AML12 or THLE-2 cells, NC or siCAND1, after PA treatment; immunoprecipitated with anti-Cullin1 antibody, immunoblotted for FBXO42 and ACAA2.
Test [2] deals with Cullin1 (mouse (endogenous in AML12 and mouse liver)) (UniProt Q9WTX6). Described as above.
Test [3] has the same target. Description: co-IP; liver lysates of WT, CAND1 cKO and CAND1 cKI mice after 16 weeks of NC or HFD feeding; immunoprecipitated with anti-ACAA2/Cullin1/FBXO42 antibodies and beads at 4 °C overnight, washed three times with lysis buffer, immunoblotted for ACAA2/FBXO42/Cullin1.
Test [4] has as its target T1, F-box only protein 42 (FBXO42) (mouse (endogenous in AML12 and mouse liver)) (UniProt Q6PDJ6).
T1 sequence: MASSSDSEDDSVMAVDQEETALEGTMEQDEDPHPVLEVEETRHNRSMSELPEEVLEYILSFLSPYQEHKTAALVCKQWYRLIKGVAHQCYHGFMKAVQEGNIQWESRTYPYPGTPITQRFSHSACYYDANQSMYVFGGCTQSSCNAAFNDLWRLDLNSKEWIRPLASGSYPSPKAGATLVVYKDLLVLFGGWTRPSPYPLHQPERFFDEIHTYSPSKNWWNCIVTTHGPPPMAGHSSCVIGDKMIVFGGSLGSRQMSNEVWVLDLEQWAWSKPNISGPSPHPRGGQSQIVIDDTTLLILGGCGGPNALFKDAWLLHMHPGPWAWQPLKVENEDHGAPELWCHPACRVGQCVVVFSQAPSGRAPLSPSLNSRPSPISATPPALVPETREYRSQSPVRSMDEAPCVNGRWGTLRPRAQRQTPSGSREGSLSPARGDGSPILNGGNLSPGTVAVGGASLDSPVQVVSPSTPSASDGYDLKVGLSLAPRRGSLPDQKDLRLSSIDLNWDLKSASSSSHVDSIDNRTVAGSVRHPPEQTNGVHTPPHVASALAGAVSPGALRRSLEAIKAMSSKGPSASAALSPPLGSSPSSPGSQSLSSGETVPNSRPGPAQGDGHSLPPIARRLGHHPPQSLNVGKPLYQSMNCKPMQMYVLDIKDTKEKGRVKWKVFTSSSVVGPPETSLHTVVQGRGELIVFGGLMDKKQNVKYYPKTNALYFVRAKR
The description is as above.

The chains behind the UniProt entries cited, without tags or fusion partners.
UniProt Q13616: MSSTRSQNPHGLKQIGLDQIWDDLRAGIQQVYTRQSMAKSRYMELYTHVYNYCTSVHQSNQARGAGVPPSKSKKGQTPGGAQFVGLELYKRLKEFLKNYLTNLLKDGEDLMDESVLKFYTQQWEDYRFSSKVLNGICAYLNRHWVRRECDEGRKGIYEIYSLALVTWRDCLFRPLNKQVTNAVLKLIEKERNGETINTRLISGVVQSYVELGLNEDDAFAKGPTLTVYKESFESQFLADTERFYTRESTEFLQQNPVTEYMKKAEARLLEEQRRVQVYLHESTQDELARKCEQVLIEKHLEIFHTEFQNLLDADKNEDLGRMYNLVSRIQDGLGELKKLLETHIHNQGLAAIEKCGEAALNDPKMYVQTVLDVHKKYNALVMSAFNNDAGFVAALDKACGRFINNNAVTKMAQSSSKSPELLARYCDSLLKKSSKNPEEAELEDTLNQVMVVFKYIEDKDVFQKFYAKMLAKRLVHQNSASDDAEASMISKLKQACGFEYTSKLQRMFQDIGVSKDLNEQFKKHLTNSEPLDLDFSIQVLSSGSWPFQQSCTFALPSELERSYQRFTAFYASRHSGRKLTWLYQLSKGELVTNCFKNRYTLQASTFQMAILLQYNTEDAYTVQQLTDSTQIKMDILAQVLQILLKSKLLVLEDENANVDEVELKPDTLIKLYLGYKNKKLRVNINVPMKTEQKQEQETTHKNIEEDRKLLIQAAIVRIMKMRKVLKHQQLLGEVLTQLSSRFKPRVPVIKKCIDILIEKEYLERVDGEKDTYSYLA
UniProt Q9WTX6: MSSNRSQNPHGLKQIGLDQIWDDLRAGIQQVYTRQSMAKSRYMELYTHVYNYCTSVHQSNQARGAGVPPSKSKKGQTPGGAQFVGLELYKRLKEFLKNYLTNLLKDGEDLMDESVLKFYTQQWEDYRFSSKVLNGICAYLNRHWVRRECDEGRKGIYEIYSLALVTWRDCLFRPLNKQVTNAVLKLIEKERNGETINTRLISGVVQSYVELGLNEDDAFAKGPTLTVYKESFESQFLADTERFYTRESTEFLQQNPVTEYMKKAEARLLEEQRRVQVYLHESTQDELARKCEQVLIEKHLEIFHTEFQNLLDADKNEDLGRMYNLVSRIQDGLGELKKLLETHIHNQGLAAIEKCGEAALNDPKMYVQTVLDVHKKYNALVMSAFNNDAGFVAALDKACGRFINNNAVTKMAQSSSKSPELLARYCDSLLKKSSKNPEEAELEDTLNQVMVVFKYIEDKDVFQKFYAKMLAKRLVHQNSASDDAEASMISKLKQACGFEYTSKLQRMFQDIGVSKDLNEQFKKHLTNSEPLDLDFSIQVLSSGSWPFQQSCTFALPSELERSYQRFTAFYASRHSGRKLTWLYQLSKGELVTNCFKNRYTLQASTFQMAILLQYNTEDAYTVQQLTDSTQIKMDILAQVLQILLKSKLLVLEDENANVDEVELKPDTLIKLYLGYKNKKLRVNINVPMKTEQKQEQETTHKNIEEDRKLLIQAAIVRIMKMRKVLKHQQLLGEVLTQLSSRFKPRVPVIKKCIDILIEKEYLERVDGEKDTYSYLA

This passage reports binding results from paper PMC10394019.

No constants are given. Whether binding was seen depends on the method and setting. In cells and extracts the contact can be indirect. Some entries that bind do so weakly or less than the wild type.

B1: F-box only protein 42 (FBXO42) (protein, UniProt Q6PDJ6 1-717)
chain: T1 sequence
For the molecule B1, the binding entry in test [1], in test [2] and in test [3] was “binds” throughout.

B2: acetyl-CoA acyltransferase 2 (ACAA2) (enzyme, UniProt Q8BWT1 1-397)
chain: MALLRGVFIVAAKRTPFGAYGGLLKDFSATDLTEFAARAALSAGKVPPETIDSVIVGNVMQSSSDAAYLARHVGLRVGVPTETGALTLNRLCGSGFQSIVSGCQEICSKDAEVVLCGGTESMSQSPYCVRNVRFGTKFGLDLKLEDTLWAGLTDQHVKLPMGMTAENLAAKYNISREDCDRYALQSQQRWKAANEAGYFNEEMAPIEVKTKKGKQTMQVDEHARPQTTLEQLQKLPSVFKKDGTVTAGNASGVSDGAGAVIIASEDAVKKHNFTPLARVVGYFVSGCDPTIMGIGPVPAINGALKKAGLSLKDMDLIDVNEAFAPQFLSVQKALDLDPSKTNVSGGAIALGHPLGGSGSRITAHLVHELRRRGGKYAVGSACIGGGQGIALIIQNTA
Consider B2, for which the binding entry in test [2], in test [3] and in test [4] was “binds” each time.

B3: acetyl-CoA acyltransferase 2 (ACAA2) (enzyme, UniProt P42765 1-397)
chain: MALLRGVFVVAAKRTPFGAYGGLLKDFTATDLSEFAAKAALSAGKVSPETVDSVIMGNVLQSSSDAIYLARHVGLRVGIPKETPALTINRLCGSGFQSIVNGCQEICVKEAEVVLCGGTESMSQAPYCVRNVRFGTKLGSDIKLEDSLWVSLTDQHVQLPMAMTAENLAVKHKISREECDKYALQSQQRWKAANDAGYFNDEMAPIEVKTKKGKQTMQVDEHARPQTTLEQLQKLPPVFKKDGTVTAGNASGVADGAGAVIIASEDAVKKHNFTPLARIVGYFVSGCDPSIMGIGPVPAISGALKKAGLSLKDMDLVEVNEAFAPQYLAVERSLDLDISKTNVNGGAIALGHPLGGSGSRITAHLVHELRRRGGKYAVGSACIGGGQGIAVIIQSTA
With B3, the binding result in test [1] is “binds”.
